Data: the supplement of paper PMC9135407
Where “and” joins values, the source holds several entries; their conditions need not be identical. Equal values may be shown once. Where a name gives a salt, the structure may show the parent alone. ± gives the standard deviation of the averaged measurements. This is one part of the list. Baselines shift from plate to plate; read single values as rough.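 Culture-activated primary human stellate myofibroblasts, where regained lipid droplets signal inactivation. Value: share of Hoechst-counted cells above a per-plate Bodipy cutoff, in duplicate wells, with DMSO negative and nortriptyline positive controls on each plate. Hits: a control-normalized score above the plate's top-tenth-percentile nortriptyline wells, or one of a plate's three best wells. Final well concentrations are not given.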

System: primary human hepatic stellate cells (donor 1)
Test: percent Bodipy-positive cells; higher = more lipid droplet accumulation
Details: 48 h
[1] = library stock concentration: 1 mM
[2] = library stock concentration: 10 mM
[3] = library stock concentration: 3.33 mM

In the case of `CN/C(=N\S(=O)(=O)c1ccc(Cl)cc1)N1C[C@H](c2ccccc2)C(c2ccc(Cl)cc2)=N1`, the “percent Bodipy-positive cells” value [1] is reported as 7.56 ± 3%.

`N#C/C(=C\c1ccc(O)c(O)c1)C(N)=S` [AG213 (Tyrphostin 47)] was tested, and the “percent Bodipy-positive cells” value (library stock concentration: 22.7 mM) was 9.52 ± 1.3%.

With `N#C/C(=C\c1ccc(O)c(O)c1)C(N)=S` [Tyrphostin 47] the “percent Bodipy-positive cells” value [2] was 13.7 ± 2%.

For `C[N+]1(C)C2CCC1CC(OC(=O)c1c[nH]c3ccccc13)C2` (configuration not stated) [3-Tropanylindole-3-carboxylate methiodide], the “percent Bodipy-positive cells” value [2] was 16.5 ± 3%.

With `C[C@@H]1CN([C@H]2CC[C@](C#N)(c3ccc(F)cc3)CC2)CC[C@]1(C(=O)O)c1ccccc1` [Levocabastine hydrochloride] the “percent Bodipy-positive cells” value was 7.97 ± 0.39%.

For `C[C@@H]1CN([C@H]2CC[C@](C#N)(c3ccc(F)cc3)CC2)CC[C@]1(C(=O)O)c1ccccc1` [Levocabastine HCl], the “percent Bodipy-positive cells” value (library stock concentration: 4.8 mM) was 9.58 ± 1%.

`CCc1cc2c(s1)-n1c(C)nnc1CN=C2c1ccccc1Cl` [Etizolam] was tested, and the “percent Bodipy-positive cells” value [3] was 16.4 ± 7% and the “percent Bodipy-positive cells” value [2] was 36.2 ± 0.27%.

For `C(=C\c1ccccc1)/CN1CCN(CCOC(c2ccccc2)c2ccccc2)CC1`, the “percent Bodipy-positive cells” value [2] was 32.3 ± 4.9%.

In the case of `CCCC[N+]1(C)[C@@H]2C[C@@H](OC(=O)[C@H](CO)c3ccccc3)C[C@H]1[C@@H]1O[C@@H]12` (single isomer, unassigned; (-)) [(-)-Scopolamine,n-Butyl-, bromide], the “percent Bodipy-positive cells” value [2] is reported as 14.6 ± 0.77%.

In the case of `COc1ccc(OC)c(C(O)C(C)N)c1` (configuration not stated) [Methoxamine hydrochloride], the “percent Bodipy-positive cells” value is reported as 34 ± 16%, the “percent Bodipy-positive cells” value (library stock concentration: 8.1 mM) is reported as 0.943 ± 0.29% and the “percent Bodipy-positive cells” value [2] is reported as 7.8% and 27%.

With `Ic1cncc(OC[C@@H]2CCN2)c1` the “percent Bodipy-positive cells” value [2] was 8.66 ± 2.7%.

`CC([C@H](O)c1ccccc1)N(C)C` (some centres not stated) was tested, and the “percent Bodipy-positive cells” value [2] was 51.8 ± 6.6%.

For `CCOc1cncc(/C=C/CCNC)c1` [TC 2559 difumarate], the “percent Bodipy-positive cells” value [2] was 8.85 ± 4.2%.

In the case of `CCC(=O)O[C@H]1CC[C@H]2[C@@H]3CCC4=CC(=O)CC[C@]4(C)[C@H]3CC[C@]12C` [Testosterone propionate], the “percent Bodipy-positive cells” value is reported as 29.7 ± 17%, the “percent Bodipy-positive cells” value (library stock concentration: 5.8 mM) is reported as 37 ± 4.6% and the “percent Bodipy-positive cells” value [2] is reported as 63.4 ± 8.3%.

For `C=CCN1CC[C@]2(C)c3cc(O)ccc3C[C@H]1C2C` (single isomer, unassigned; (+)), the “percent Bodipy-positive cells” value [2] was 10.8 ± 2%.

`CN1C2CC(=O)CC1C(O)C2` (configuration not stated) [6-Hydroxytropinone] was tested, and the “percent Bodipy-positive cells” value was 7.87 ± 6.4%.

`C[C@@H]1CC[C@]2(NC1)O[C@H]1C[C@H]3[C@@H]4CC=C5C[C@@H](O)CC[C@]5(C)[C@H]4CC[C@]3(C)[C@H]1[C@@H]2C` [Solasodine] was tested, and the “percent Bodipy-positive cells” value was 7.93 ± 4.1% and the “percent Bodipy-positive cells” value [2] was 37.7 ± 5.4%.

With `CCCCC/C=C\C/C=C\C/C=C\C/C=C\CCCC(=O)NCCc1ccc(O)c(O)c1` [N-Arachidonoyl Dopamine] the “percent Bodipy-positive cells” value [1] was 7.47 ± 1.6%.

`COC(=O)[C@]1(O)C[C@@H]2O[C@@]1(C)n1c3ccccc3c3c4c(c5c6ccccc6n2c5c31)C(=O)NC4` [K-252a, Nocardiopsis sp.] was tested, and the “percent Bodipy-positive cells” value [3] was 75.1 ± 20%.

In the case of `Cc1sc2c(c1C)C(c1ccc(Cl)cc1)=N[C@@H](CC(=O)OC(C)(C)C)c1nnc(C)n1-2`, the “percent Bodipy-positive cells” value (library stock concentration: 80 uM) is reported as 42 ± 4.9%, the “percent Bodipy-positive cells” value (library stock concentration: 400 uM) is reported as 49.81 ± 0.26% and the “percent Bodipy-positive cells” value (library stock concentration: 2 mM) is reported as 48.8 ± 5.5%. For the same compound, the “percent Bodipy-positive cells” value [3] was 44.3 ± 9.6% and the “percent Bodipy-positive cells” value [2] was 36.9% and 59.8%.

`O=c1c2ccccc2[se]n1-c1ccccc1` [Ebselen] was tested, and the “percent Bodipy-positive cells” value (library stock concentration: 18.2 mM) was 100%.

`Cl[C@H]1[C@H](Cl)[C@@H](Cl)[C@@H](Cl)[C@H](Cl)[C@H]1Cl` [Lindane] was tested, and the “percent Bodipy-positive cells” value (library stock concentration: 6.9 mM) was 3.06 ± 1.2% and the “percent Bodipy-positive cells” value [2] was 36.4 ± 14%.

In the case of `Cc1ccc2c(c1)C1(CCN(CCc3nc(-c4ccccc4)oc3C)CC1)OC(=O)N2`, the “percent Bodipy-positive cells” value [2] is reported as 23.8 ± 3.4%.

For `CCCCC/C=C\C/C=C\C/C=C\C/C=C\CCCC(=O)NCC(=O)O` [Arachidonoyl Glycine], the “percent Bodipy-positive cells” value [1] was 14.4 ± 4.2%.

In the case of `CCCCC/C=C\C/C=C\C/C=C\C/C=C\CCCC(=O)NCC(=O)O` [N-arachidonoylglycine], the “percent Bodipy-positive cells” value [1] is reported as 11.6 ± 10%.

`Oc1ccc(Cl)cc1Cc1cc(Cl)ccc1O` [Dichlorophene] was tested, and the “percent Bodipy-positive cells” value [2] was 25 ± 4.4%.

`CC(O)CN1CCN(CC(=O)[O-])CCN(CC(=O)[O-])CCN(CC(=O)[O-])CC1.[Gd+3]` (configuration not stated) was tested, and the “percent Bodipy-positive cells” value [2] was 39.4 ± 7%.

In the case of `COc1ccc(CC2c3cc(OC)c(OC)cc3CCN2C)cc1OC` (racemic) [Laudanosine (R,S)], the “percent Bodipy-positive cells” value is reported as 32 ± 2.7%.

For `C/C(O)=C(\C#N)C(=O)Nc1cc(Br)ccc1Br`, the “percent Bodipy-positive cells” value [2] was 6.94 ± 0.71%.

In the case of `Cc1ccccc1-n1c(Cn2ncc3c(N)ncnc32)nc2cccc(C)c2c1=O`, the “percent Bodipy-positive cells” value [3] is reported as 7.95 ± 4.3% and the “percent Bodipy-positive cells” value [2] is reported as 11.5 ± 0.9%.
